The data set has as its system T1, off-target kinases.
T1 construct: IC50 (nM); other: Adapta, ATP Km app; Hillslope; LRRK2: PV4873/1106714; IRAK1: PV4403/880118
Kind of data set: SelectScreen Kinase Profiling, IC50 for off-target kinases. The format is biochemical. Particulars: Adapta, ATP Km app.

Each structure is given as a SMILES string. Several values for one entry are separate records, joined by “and”; a condition that tells them apart may be missing. Equal values may be shown once.

In the case of `N#Cc1cc(-c2ncnc(Nc3ccc(N4CCN(C5COC5)CC4)cc3)n2)ccc1OC1CCOCC1` [Compound 1, 5-(4-((4-(4-(oxetan-3-yl)piperazin-1-yl)phenyl)amino)-1,3,5-triazin-2-yl)-2-((tetrahydro-2H-pyran-4-yl)oxy)benzonitrile], the Hillslope is 0.99 and 1.

The values are drawn from patent publication US12116636B2, “Methods for evaluating tumor cell spheroids using 3D microfluidic cell culture device” (Dana-Farber Cancer Institute, Inc., priority 2017, dated 2024).
